Results deposited as PubChem BioAssay AID504791 (Drosophila RNAi Screening Center, 2011).

Screen: 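Genes whose knock-down strengthens or weakens small-RNA reporter silencing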 (primary screen)
System: Drosophila S2-derived reporter cells
Reagent: long dsRNA against Drosophila genes, about 150-250 ng dsRNA per well (siRNA assay); about 80-120 ng (miRNA assay)
Duration: about 5 days (siRNA assay); about 4 days (miRNA assay)
Treatment: copper sulfate induction of reporters: 25 µM (siRNA assay); 200 mM stated (miRNA assay), 1-2 days before reading
Measurement: 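Dual luciferase assay: Renilla to firefly signal ratio in each well, scaled to the mean ratio of its plate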
Scale: siRNA reporter hit score: higher = 3 marks a strong hit with raised ratio; -3 a strong hit with lowered ratio
Units: stable assay Renilla, run 1 in luminescence; stable assay firefly, run 1 in luminescence
Rule for the call: 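First-pass picks had plate-scaled ratios over 1.5 for the siRNA assay, over 1.6 for the miRNA assay, or under 0.6; two distinct dsRNAs had to score alike on retest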
In all, the deposit lists about 23,000 reagents; this is an unselected part of those with a known target gene and a result. Over the whole deposit, 199 (0.86%) got an active call. 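Plate-scaled ratios behind the calls are not deposited; printed light signals are raw; many rows marked increased or decreased are still called inactive.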 The numbers tell different reagents against one gene apart. A plus sign joins genes that one reagent is predicted to hit.

| gene | dsRNA no. | siRNA reporter hit score | stable siRNA reporter change | stable assay Renilla, run 1 | stable assay firefly, run 1 | Call |
| --- | --- | --- | --- | --- | --- | --- |
| ItgaPS5 (GeneID 37732) | 1 | – | – | 6118 | 4.09e5 | inactive |
| CG31933 (GeneID 326176) | 1 | – | – | 8734 | 5.43e5 | inactive |
| CG42749 (GeneID 31438) | 1 | – | – | 6143 | 3.23e5 | inactive |
| CG42749 (GeneID 31438) | 2 | – | – | 5839 | 2.61e5 | inactive |
| CG14569 (GeneID 40417) | 1 | – | – | 8678 | 4.27e5 | inactive |
| CG33137 (GeneID 36449) | 1 | – | – | 10039 | 7.52e5 | inactive |
| Bx (GeneID 32846) | 1 | – | – | 4808 | 5.12e5 | inactive |
| Bx (GeneID 32846) | 2 | – | – | 5982 | 3.21e5 | inactive |
| CG7523 (GeneID 42125) | 1 | – | – | 9648 | 4.04e5 | inactive |
| cyp33 (GeneID 36984) | 1 | – | – | 13136 | 5.51e5 | inactive |
| Stat92E (GeneID 42428) | 1 | – | – | 6416 | 2.50e5 | inactive |
| iPLA2-VIA (GeneID 39160) | 1 | – | – | 8099 | 4.34e5 | inactive |
| ovm + CG31975 | 1 | – | – | 10468 | 6.57e5 | inactive |
| Adar (GeneID 31130) | 1 | – | – | 6224 | 3.50e5 | inactive |
| Trc8 (GeneID 43476) | 1 | – | – | 6499 | 4.59e5 | inactive |
| brv2 (GeneID 39932) | 1 | – | – | 6958 | 4.70e5 | inactive |
| CG31704 (GeneID 318906) | 1 | – | – | 10101 | 6.72e5 | inactive |
| CG4658 (GeneID 34325) | 1 | – | – | 8186 | 5.12e5 | inactive |
| CG13004 (GeneID 32673) | 1 | – | – | 4547 | 3.14e5 | inactive |
| Gen (GeneID 38594) | 1 | – | – | 7708 | 3.78e5 | inactive |
| TyrRII (GeneID 42135) | 1 | – | – | 6618 | 4.46e5 | inactive |
| CG12134 (GeneID 36038) | 1 | – | – | 6422 | 4.69e5 | inactive |
| EMRE (GeneID 37071) | 1 | – | – | 5783 | 3.47e5 | inactive |
| Galphai (GeneID 38765) | 1 | – | – | 9847 | 4.75e5 | inactive |
| CG7024 (GeneID 31407) | 1 | – | – | 5446 | 2.77e5 | inactive |
| Oseg1 (GeneID 38957) | 1 | – | – | 8239 | 4.76e5 | inactive |
| Gr33a (GeneID 34641) | 1 | – | – | 6327 | 2.79e5 | inactive |
| Or30a (GeneID 34236) | 1 | – | – | 6958 | 4.57e5 | inactive |
| shrb (GeneID 35933) | 1 | – | – | 8714 | 4.60e5 | inactive |
| aPKC (GeneID 47594) | 1 | – | – | 6700 | 3.55e5 | inactive |
| aPKC (GeneID 47594) | 2 | – | – | 6063 | 2.73e5 | inactive |
| CG13712 (GeneID 38574) | 1 | – | – | 6971 | 5.56e5 | inactive |
| SmydA-1 (GeneID 36581) | 1 | – | – | 6998 | 4.00e5 | inactive |
| Set1 (GeneID 3354971) | 1 | -3 | – | 7250 | 4.72e5 | inactive |
| Set1 (GeneID 3354971) | 2 | – | – | 7460 | 3.97e5 | inactive |
| Ilp5 (GeneID 2768992) | 1 | – | – | 4810 | 4.32e5 | inactive |
| Orcokinin (GeneID 37806) | 1 | – | – | 6032 | 3.10e5 | inactive |
| Vmat + CG13330 | 1 | – | – | 7775 | 3.62e5 | inactive |
| CG17490 (GeneID 3355125) | 1 | – | – | 5978 | 3.71e5 | inactive |
| CG17490 (GeneID 3355125) | 2 | – | – | 6843 | 4.13e5 | inactive |
| CG30286 (GeneID 246529) | 1 | – | – | 6743 | 4.42e5 | inactive |
| CG31468 (GeneID 251937) | 1 | – | – | 7323 | 6.83e5 | inactive |
| lov (GeneID 38007) | 1 | – | – | 6867 | 4.88e5 | inactive |
| lov (GeneID 38007) | 2 | – | – | 3356 | 4.55e5 | inactive |
| CG15576 (GeneID 31369) | 1 | – | – | 4231 | 3.08e5 | inactive |
| Sfxn1-3 (GeneID 40552) | 1 | – | – | 7063 | 3.33e5 | inactive |
| CG13408 (GeneID 42597) | 1 | – | – | 4975 | 3.88e5 | inactive |
| CG13408 (GeneID 42597) | 2 | – | – | 7895 | 4.12e5 | inactive |
| CG9406 (GeneID 37405) | 1 | – | – | 8449 | 7.30e5 | inactive |
| Ptth (GeneID 33238) | 1 | – | – | 7794 | 4.12e5 | inactive |
| Vta1 (GeneID 38204) | 1 | – | – | 4759 | 3.51e5 | inactive |
| Vta1 (GeneID 38204) | 2 | – | – | 5332 | 5.36e5 | inactive |
| Ssl1 (GeneID 40509) | 1 | – | – | 8080 | 3.84e5 | inactive |
| Mob3 (GeneID 34372) | 1 | – | – | 8607 | 7.16e5 | inactive |
| CG17683 (GeneID 3355011) | 1 | – | – | 5527 | 3.21e5 | inactive |
| CG1233 (GeneID 38063) | 1 | – | – | 9145 | 3.79e5 | inactive |
| CG14720 (GeneID 41415) | 1 | – | – | 6859 | 3.93e5 | inactive |
| CG32668 (GeneID 318147) | 1 | – | – | 4967 | 3.47e5 | inactive |
| EloB (GeneID 42435) | 1 | – | – | 7860 | 3.59e5 | inactive |
| Mpc1 (GeneID 42268) | 1 | – | reporter ratio lowered past the hit cutoff | 8939 | 6.51e5 | inactive |
| CG15649 (GeneID 37371) | 1 | – | – | 6315 | 4.22e5 | inactive |
| CG3088 (GeneID 39115) | 1 | – | – | 7988 | 3.90e5 | inactive |
| CG13716 (GeneID 38567) | 1 | – | – | 3736 | 4.11e5 | inactive |
| CG13716 (GeneID 38567) | 2 | – | – | 3340 | 4.09e5 | inactive |
| Cpr49Aa (GeneID 246413) | 1 | – | – | 6599 | 3.50e5 | inactive |
| comm2 (GeneID 39716) | 1 | – | – | 7182 | 3.60e5 | inactive |
| comm2 (GeneID 39716) | 2 | – | – | 7435 | 4.33e5 | inactive |
| HLH4C (GeneID 31397) | 1 | – | – | 4595 | 2.99e5 | inactive |
| HLH4C (GeneID 31397) | 2 | – | – | 9195 | 6.64e5 | inactive |
| CG3008 (GeneID 33693) | 1 | – | – | 7176 | 3.93e5 | inactive |
| Idi (GeneID 42526) | 1 | – | – | 8964 | 3.48e5 | inactive |
| alpha-Spec (GeneID 38231) | 1 | – | – | 7962 | 3.10e5 | inactive |
| CAH16 (GeneID 50101) | 1 | – | – | 7627 | 4.28e5 | inactive |
| CG9701 (GeneID 39872) | 1 | – | – | 10935 | 4.16e5 | inactive |
| CG11929 (GeneID 33668) | 1 | – | – | 8667 | 4.65e5 | inactive |
| ND4 (retired record) (GeneID 192476) | 1 | – | – | 5648 | 4.12e5 | inactive |
| Shab (GeneID 38352) | 1 | – | – | 6074 | 3.48e5 | inactive |
| Shab (GeneID 38352) | 2 | – | – | 6343 | 3.44e5 | inactive |
| Shab (GeneID 38352) | 3 | – | – | 14098 | 4.70e5 | inactive |
| CG7551 (GeneID 39280) | 1 | – | – | 7034 | 3.22e5 | inactive |
| CG4716 (GeneID 36471) | 1 | – | – | 8164 | 5.13e5 | inactive |
| Cyp6t1 (GeneID 33127) | 1 | – | – | 5447 | 3.37e5 | inactive |
| Dcps (GeneID 40711) | 1 | – | – | 7895 | 3.77e5 | inactive |

No new results follow: an excerpt of the list.
| gene | dsRNA no. | siRNA reporter hit score | stable siRNA reporter change | stable assay Renilla, run 1 | stable assay firefly, run 1 | Call |
| --- | --- | --- | --- | --- | --- | --- |
| TyrRII (GeneID 42135) | 1 | – | – | 6618 | 4.46e5 | inactive |
| CG12134 (GeneID 36038) | 1 | – | – | 6422 | 4.69e5 | inactive |
| EMRE (GeneID 37071) | 1 | – | – | 5783 | 3.47e5 | inactive |
| Galphai (GeneID 38765) | 1 | – | – | 9847 | 4.75e5 | inactive |
| CG7024 (GeneID 31407) | 1 | – | – | 5446 | 2.77e5 | inactive |
| Oseg1 (GeneID 38957) | 1 | – | – | 8239 | 4.76e5 | inactive |
